Test results as given in PubChem BioAssay AID540303 (National Center for Advancing Translational Sciences (NCATS), 2011).
In all, about 330,000 compounds went through this assay and about 1,000 (0.3%) were called active. This list was built around the results that the source calls inconclusive (neither active nor inactive); the mix of calls is not that of the screen. The call rests on the fitted dose curve; in most records, active means well fitted inhibition curve with a large enough effect; inconclusive means small, poorly fitted or top-dose-only effect; inactive means no such curve, though single readings can be large or run the other way; tested in mouse RAW 264.7 cells. A potency beside an inconclusive call is a rough fit, not a confirmed value.

Assay: qHTS for Inhibitors of Cell Surface uPA Generation; further: nearly all actives have a fitted effect of over 55% in size
Conditions: cell surface uPA generation assay; series mostly up to 38.3 µM; activity change, negative = inhibition: at the top concentration
Summary of the method: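 RAW 264.7 cells, 4000/well, given compound (1:5 dilutions, up to 38.3 uM final) and incubated 24 h at 37 C. Blocked uPA-dependent LF entry keeps ATP high; ATPlite luminescence read, 5 s exposure.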
On the % scale 0 is the no-effect control and ±100 the full control effect; potency means the concentration at half of the fitted maximal effect.

SMILES | Potency | activity change, negative = inhibition
COc1ccc2oc(C(=O)OCC(=O)N3CCN(S(=O)(=O)c4ccc(C)cc4)CC3)c(C)c2c1 | inconclusive: 5.62 µM [inhibitor, partial curve, poor fit] | 
Cc1cc(=O)oc2cc(NC(=S)NNC(=O)c3c(Cl)cnn3C)ccc12 | inconclusive: 8.91 µM [inhibitor, single point] | 
CCC1=C(OC(=O)N(CC)CC)N2C(=O)OC(=NCCc3c[nH]c4ccccc34)[C@]2(Cc2ccccc2)[C@H]2C1=CC[C@H]1C(=O)N(C)C(=O)[C@H]12 | inconclusive: 12.6 µM [inhibitor, single point] | 
CCC(=O)N1CCc2cc(S(=O)(=O)NC(C(=O)NCc3ccccc3)C(C)C)ccc21 (configuration not stated) |  | inactive: 2.01%
OCCC1CN(Cc2cccn2-c2ccccn2)CCN1C1CCCCC1 (configuration not stated) |  | inactive: -1.56%
O=C(O)c1ccc(N=Nc2c(O)ccc3ncccc23)cc1 | inconclusive: 12.6 µM [inhibitor, single point] | 
Cc1ccc(-n2nc3c(=O)n(C(C)C(=O)NCc4ccc(Cl)cc4)nc(C)c3c2C)cc1 (configuration not stated) | inconclusive: 8.91 µM [inhibitor, single point] | 
COc1ccc(-c2cc(C(=O)N(C)Cc3ccc(F)cc3)c3ccccc3n2)cc1OC |  | inactive: 1.95%
CCOc1cc(/C=N/NC(=O)c2cccs2)ccc1OC(=O)N1CCOCC1 |  | inactive: -4.97%
CN(C)CCC(C(=O)c1ccccc1)c1ccccn1 (configuration not stated) |  | inactive: 2.96%
COc1cc(C(=O)NC2CCN(C)CC2)ccc1Nc1ncc2c(n1)N(Cc1ccccc1)CCC(=O)N2C | inconclusive: 14.1 µM [inhibitor, partial curve, poor fit] | 
Cc1ccc(NS(=O)(=O)c2ccc(C(=O)NC3CCN(Cc4ccccc4)CC3)cc2)cc1 | inconclusive: 12.6 µM [inhibitor, partial curve, poor fit] | 
CN(C(=O)c1cccc(NC(=O)Cc2ccc(NC(=O)C3CCCN(C(=O)C4CCCC4)C3)cc2)c1)C1CCCCC1 (configuration not stated) | inconclusive: 6.31 µM [inhibitor, partial curve, poor fit] | 
COc1c(-c2ccc(O)c(O)c2)oc2cc(O)cc(O)c2c1=O | inconclusive: 12.6 µM [inhibitor, partial curve, poor fit] | 
C/C(=N/NC(=O)c1ccco1)c1cccc(NC(=O)c2ccc(C)s2)c1 | inconclusive: 10 µM [inhibitor, partial curve, poor fit] | 
Cc1ccccc1Nc1c(-c2ccncc2)nc2ccc(Cl)cn12 | inconclusive: 11.2 µM [inhibitor, single point] | 
O=C(Nc1cccc(-c2ccc(N3CCCCC3)nn2)c1)C(F)(F)F | inconclusive: 2.82 µM [inhibitor, partial curve, poor fit] | 

A draw from above in order of molar mass, ascending:
SMILES | Potency | activity change, negative = inhibition
Cc1ccccc1Nc1c(-c2ccncc2)nc2ccc(Cl)cn12 | inconclusive: 11.2 µM [inhibitor, single point] | 
CCC(=O)N1CCc2cc(S(=O)(=O)NC(C(=O)NCc3ccccc3)C(C)C)ccc21 (configuration not stated) |  | inactive: 2.01%
Cc1ccc(NS(=O)(=O)c2ccc(C(=O)NC3CCN(Cc4ccccc4)CC3)cc2)cc1 | inconclusive: 12.6 µM [inhibitor, partial curve, poor fit] | 
